doi:10.1101/508887
These are yes or no findings as the source states them, for the method shown. In cells and extracts the contact can be indirect. A yes stands for co-enrichment or nearness to the bait. Other partners may have been found. Tags and fused reporters may be left off the sequences shown.

Molecular target: T1, KIF1C-BioID-3XFLAG (human) (UniProt O43896)
T1 sequence: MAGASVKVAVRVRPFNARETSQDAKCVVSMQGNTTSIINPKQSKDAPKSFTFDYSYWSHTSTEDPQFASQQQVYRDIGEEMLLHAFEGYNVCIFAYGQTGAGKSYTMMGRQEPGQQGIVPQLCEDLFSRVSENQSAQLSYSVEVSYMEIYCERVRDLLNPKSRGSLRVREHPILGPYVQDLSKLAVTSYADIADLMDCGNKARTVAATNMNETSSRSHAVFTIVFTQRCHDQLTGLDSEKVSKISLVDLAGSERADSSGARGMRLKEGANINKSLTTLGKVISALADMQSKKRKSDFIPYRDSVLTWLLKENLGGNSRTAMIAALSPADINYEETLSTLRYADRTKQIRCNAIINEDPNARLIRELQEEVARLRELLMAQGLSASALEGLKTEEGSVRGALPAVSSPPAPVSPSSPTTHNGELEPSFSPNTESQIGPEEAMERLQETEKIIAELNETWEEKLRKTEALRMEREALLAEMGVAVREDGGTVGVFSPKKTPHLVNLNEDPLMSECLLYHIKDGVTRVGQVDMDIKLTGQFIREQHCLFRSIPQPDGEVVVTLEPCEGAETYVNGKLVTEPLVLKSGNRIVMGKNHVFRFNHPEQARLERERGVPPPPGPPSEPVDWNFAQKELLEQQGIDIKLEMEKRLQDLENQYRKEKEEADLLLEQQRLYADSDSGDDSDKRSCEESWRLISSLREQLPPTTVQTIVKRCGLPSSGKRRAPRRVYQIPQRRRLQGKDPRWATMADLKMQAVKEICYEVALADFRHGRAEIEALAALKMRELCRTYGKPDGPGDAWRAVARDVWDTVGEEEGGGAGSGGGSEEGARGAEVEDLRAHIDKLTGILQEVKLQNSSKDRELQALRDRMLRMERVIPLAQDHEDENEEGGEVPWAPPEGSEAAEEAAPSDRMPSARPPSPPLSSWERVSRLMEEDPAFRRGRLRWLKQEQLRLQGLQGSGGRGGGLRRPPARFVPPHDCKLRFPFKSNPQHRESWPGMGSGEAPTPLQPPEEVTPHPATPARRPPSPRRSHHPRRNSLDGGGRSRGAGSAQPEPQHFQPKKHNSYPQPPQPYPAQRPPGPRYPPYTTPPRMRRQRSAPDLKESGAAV
Assay: proximity labelling

B1: HOOK3 (endogenous) (protein, UniProt Q86VS8 1-718)
chain: MFSVESLERAELCESLLTWIQTFNVDAPCQTVEDLTNGVVMAQVLQKIDPAYFDENWLNRIKTEVGDNWRLKISNLKKILKGILDYNHEILGQQINDFTLPDVNLIGEHSDAAELGRMLQLILGCAVNCEQKQEYIQAIMMMEESVQHVVMTAIQELMSKESPVSAGNDAYVDLDRQLKKTTEELNEALSAKEEIAQRCHELDMQVAALQEEKSSLLAENQVLMERLNQSDSIEDPNSPAGRRHLQLQTQLEQLQEETFRLEAAKDDYRIRCEELEKEISELRQQNDELTTLADEAQSLKDEIDVLRHSSDKVSKLEGQVESYKKKLEDLGDLRRQVKLLEEKNTMYMQNTVSLEEELRKANAARSQLETYKRQVVELQNRLSEESKKADKLDFEYKRLKEKVDSLQKEKDRLRTERDSLKETIEELRCVQAQEGQLTTQGLMPLGSQESSDSLAAEIVTPEIREKLIRLQHENKMLKLNQEGSDNEKIALLQSLLDDANLRKNELETENRLVNQRLLEVQSQVEELQKSLQDQGSKAEDSVLLKKKLEEHLEKLHEANNELQKKRAIIEDLEPRFNNSSLKIEELQEALRKKEEEMKQMEERYKKYLEKAKSVIRTLDPKQNQGAAPEIQALKNQLQERDRLFHSLEKEYEKTKSQREMEEKYIVSAWYNMGMTLHKKAAEDRLASTGSGQSFLARQRQATSSRRSYPGHVQPATAR
- binding: binds
